From article PMC10123111 come the findings set out here.

By UniProt entry, the sequences of proteins in these tests, tags left out. Where a name states a change or a piece, a line headed by the entry shows the natural chain unless it says otherwise. Residues count along the entry.
UniProt Q92466: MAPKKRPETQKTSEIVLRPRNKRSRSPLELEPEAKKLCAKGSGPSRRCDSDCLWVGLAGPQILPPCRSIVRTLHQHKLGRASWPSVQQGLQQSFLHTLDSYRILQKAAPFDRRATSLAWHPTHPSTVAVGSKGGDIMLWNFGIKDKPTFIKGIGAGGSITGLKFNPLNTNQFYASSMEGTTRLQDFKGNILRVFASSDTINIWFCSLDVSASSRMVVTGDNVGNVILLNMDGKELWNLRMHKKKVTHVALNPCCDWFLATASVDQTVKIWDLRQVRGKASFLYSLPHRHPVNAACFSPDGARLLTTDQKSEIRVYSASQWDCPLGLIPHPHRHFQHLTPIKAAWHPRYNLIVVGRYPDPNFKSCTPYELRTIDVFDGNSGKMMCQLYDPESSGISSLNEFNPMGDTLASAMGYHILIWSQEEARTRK
DDB2-mCherry: residues 2-419 of Q92466
UniProt Q16531: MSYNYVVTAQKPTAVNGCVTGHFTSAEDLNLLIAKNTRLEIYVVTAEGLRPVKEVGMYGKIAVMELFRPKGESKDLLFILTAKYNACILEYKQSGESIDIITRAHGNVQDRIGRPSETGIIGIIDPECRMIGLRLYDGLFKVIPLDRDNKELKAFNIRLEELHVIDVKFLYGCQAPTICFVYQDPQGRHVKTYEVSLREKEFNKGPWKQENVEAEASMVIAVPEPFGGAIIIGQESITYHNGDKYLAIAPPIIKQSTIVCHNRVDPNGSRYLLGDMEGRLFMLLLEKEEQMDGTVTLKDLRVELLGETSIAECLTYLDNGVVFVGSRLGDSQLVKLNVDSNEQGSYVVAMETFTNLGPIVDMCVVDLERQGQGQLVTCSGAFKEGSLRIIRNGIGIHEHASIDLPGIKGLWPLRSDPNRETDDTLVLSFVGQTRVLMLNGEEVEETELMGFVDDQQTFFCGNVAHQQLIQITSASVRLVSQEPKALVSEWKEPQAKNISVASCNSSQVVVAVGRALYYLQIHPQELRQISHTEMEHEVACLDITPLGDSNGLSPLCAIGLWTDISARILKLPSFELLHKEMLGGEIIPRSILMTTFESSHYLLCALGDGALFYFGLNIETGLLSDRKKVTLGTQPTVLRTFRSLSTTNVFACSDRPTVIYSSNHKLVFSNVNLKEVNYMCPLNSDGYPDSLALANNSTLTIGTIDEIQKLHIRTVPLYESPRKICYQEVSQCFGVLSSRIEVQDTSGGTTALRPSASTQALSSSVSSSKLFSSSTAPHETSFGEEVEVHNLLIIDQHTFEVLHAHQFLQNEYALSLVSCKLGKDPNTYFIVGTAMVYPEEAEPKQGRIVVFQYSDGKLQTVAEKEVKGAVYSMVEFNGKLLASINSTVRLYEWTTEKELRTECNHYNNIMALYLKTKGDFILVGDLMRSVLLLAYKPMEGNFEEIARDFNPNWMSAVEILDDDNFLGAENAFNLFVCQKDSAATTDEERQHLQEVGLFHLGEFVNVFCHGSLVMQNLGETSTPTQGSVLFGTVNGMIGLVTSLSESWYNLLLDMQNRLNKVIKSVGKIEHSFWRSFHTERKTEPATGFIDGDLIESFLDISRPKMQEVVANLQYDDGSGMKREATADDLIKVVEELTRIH

Results are given in words; binding and its absence hold for the method and conditions named. For some assays here: Binding seen in cells or lysates may run through a third protein. Some binding calls cover weakened binding; strength is not graded here.

In assay [1] the target is DDB2-Flag (recombinant, subunit of purified UV-DDB) (UniProt Q92466). Description: co-purification (Ni affinity, anti-FLAG affinity, SEC); His6-DDB1 and DDB2-Flag co-expressed in Sf9; His-Trap HP column, then anti-FLAG M2 affinity gel, then HiLoad 16/60 Superdex 200 in 50 mM HEPES pH 7.5, 200 mM KCl, 1 mM EDTA, 2 mM DTT, 10% glycerol.
The next assay addresses DDB2-mCherry (UniProt Q92466). Description: FRET or BRET; single-molecule FRET on DNA in the C-trap; donor eGFP-DDB1 excited at 488 nm (50% power, 34 ms per frame), acceptor DDB2-mCherry; eGFP bleed-over of 9.0% subtracted.

For the substance “His6-DDB1 (recombinant, subunit of purified UV-DDB) (from UniProt Q16531 1-1140)”, the binding result in assay [1] was “binds”.
For the substance “eGFP-DDB1 (DNA damage-binding protein 1 with an N-terminal eGFP tag) (from UniProt Q16531 2-1140)”, the binding result with DDB2-mCherry is “binds”.
